The target in the data set is interleukin-6 (IL-6), human recombinant (Homo sapiens) (UniProt P05231). In words: SWCNT near-infrared fluorescence quenching, (7,5) chirality. Particulars: SWCNT complex, 1X PBS + 10% FBS, no significant response, p=0.58306; 0.5 mg/L SWCNT-ssDNA in 1X PBS (or 1X PBS + 10% FBS), 5250 ng/mL IL-6, 120 uL, triplicate, up to 180 min; pH and temperature not stated; commercial protein; label: noncovalently adsorbed on SWCNT; single-stranded DNA.

Chains of the proteins cited; added tags and fusions are not shown. Residues count along the entry.
UniProt P05231, 30-212: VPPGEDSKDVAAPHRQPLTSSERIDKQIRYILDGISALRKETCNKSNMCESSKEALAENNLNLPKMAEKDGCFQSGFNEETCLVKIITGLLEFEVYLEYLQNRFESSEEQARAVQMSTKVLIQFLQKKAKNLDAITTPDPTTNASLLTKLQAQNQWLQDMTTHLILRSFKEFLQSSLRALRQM

Negatives hold for the conditions tested.

In the case of “TGTGTGTGTGTGTGTGTGTGTGTGTGTGTGGTGGCAGGAGGACTATTTATTTGCTTTTCT [(GT)15+31Apt]”, the binding result is listed as “no binding”.

Source of the values: doi:10.1101/2024.04.05.588290.
